Series [1] deals with T1, IRF-3 (nuclear extract, poly I:C-transfected HeLa) (human (HeLa)) (UniProt Q14653).
T1 sequence (looked up, limits assumed): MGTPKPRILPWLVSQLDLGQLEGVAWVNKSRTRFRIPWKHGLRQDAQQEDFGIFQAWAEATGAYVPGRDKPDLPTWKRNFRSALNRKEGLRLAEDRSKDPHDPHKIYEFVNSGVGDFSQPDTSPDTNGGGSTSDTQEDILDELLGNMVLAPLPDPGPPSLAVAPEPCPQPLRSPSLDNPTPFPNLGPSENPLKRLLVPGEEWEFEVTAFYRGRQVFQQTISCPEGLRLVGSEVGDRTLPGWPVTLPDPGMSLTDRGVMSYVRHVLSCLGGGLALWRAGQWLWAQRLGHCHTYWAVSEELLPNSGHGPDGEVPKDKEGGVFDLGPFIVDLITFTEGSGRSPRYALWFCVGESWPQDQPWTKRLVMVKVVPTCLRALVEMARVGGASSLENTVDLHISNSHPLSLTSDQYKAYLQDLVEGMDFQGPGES
The series is described as follows: EMSA supershift (complex lost with anti-IRF-3). The settings on record: poly I:C-treated extract, control IgG no effect; 8 pmol DIG-labeled probe with 5 ug nuclear lysate protein or GST-fusion protein (50-500 nM), Roche DIG gel shift kit, 6% DNA retardation gel; protein in an extract; label: DIG.

In series [2] the target is GST-IRF-3(5D) (human (HeLa cDNA)) (UniProt Q14653). The series is described as follows: EMSA. The settings on record: 8 pmol DIG-labeled probe with 5 ug nuclear lysate protein or GST-fusion protein (50-500 nM), Roche DIG gel shift kit, 6% DNA retardation gel, recombinant protein, residues 1-427, protein details: N-terminal GST (pGEX5x-1), label: DIG.
Series [3] concerns the target T1, IRF-3 (nuclear extract, poly I:C-transfected HeLa) (human (HeLa)). The series is described as follows: EMSA. Conditions: poly I:C-treated extract; 8 pmol DIG-labeled probe with 5 ug nuclear lysate protein or GST-fusion protein (50-500 nM), Roche DIG gel shift kit, 6% DNA retardation gel; protein in an extract; label: DIG.
The target is the same in series [4]. The series is described as follows: competition with a labelled probe. Conditions: 50-fold molar excess unlabeled against labeled WT; 8 pmol DIG-labeled probe with 5 ug nuclear lysate protein or GST-fusion protein (50-500 nM), Roche DIG gel shift kit, 6% DNA retardation gel; protein in an extract.

For at least one entry, the source does not settle the construct or the ends of the probe. For part of these data: Negatives hold for the conditions tested. For part of these data: Results from cells or extracts need not show a direct contact. For part of these data: Where a protein sequence is shown, tags need not be part of it.

As to “GTTGCACTTTCGATTTTCCCTTTAGTTATTAAAG / GGAACTTTAATAACTAAAGGGAAAATCGAAAGTG [RIG-I IRF-E WT]”, the binding result in series [1] is “binds”; in series [2] (50, 125, 500 nM protein, concentration-dependent), “binds”.

Turning to “GTTGCACTTTCGATGGGACCTTTAGTTATTAAAG / GGAACTTTAATAACTAAAGGTCCCATCGAAAGTG [RIG-I IRF-E MT]”, the binding result in series [2] (500 nM protein) and in series [3] was “no binding” in each case.

With “GTTGCACTTTCGATTTTCCCTTTAGTTATTAAAG / GGAACTTTAATAACTAAAGGGAAAATCGAAAGTG [RIG-I IRF-E WT, unlabeled competitor]”, in series [4], the binding result was “binds”.

Take “GTTGCACTTTCGATGGGACCTTTAGTTATTAAAG / GGAACTTTAATAACTAAAGGTCCCATCGAAAGTG [RIG-I IRF-E MT, unlabeled competitor]”: the binding result in series [4] was “no binding”.

The record behind these values is paper PMC5035021.
